Measured values published in PubChem BioAssay AID504467 (National Center for Advancing Translational Sciences (NCATS), 2011).
Hit rate of the full screen: of about 330,000 compounds, about 7,700 (2.3%) were called active. This list was built around the results that the source calls inconclusive (neither active nor inactive); the mix of calls is not that of the screen. Calls follow the shape of the dose curve; as a rule, active = well fitted inhibition curve with a large enough effect; inconclusive = small, poorly fitted or top-dose-only effect, or effect the other way; inactive = flat fitted curve, though single readings scatter. A potency beside an inconclusive call is a rough fit, not a confirmed value.

Experiment: qHTS screen for small molecules that inhibit ELG1-dependent DNA repair in human embryonic kidney (HEK293T) cells expressing luciferase-tagged ELG1; also: nearly all actives have a fitted effect of over 55% in size
Details: HEK293T ELG1-luciferase reporter, luminescence, 16 h, DNA damage induced by 5-fluorouridine; activity change, negative = inhibition: at 46.1 µM (top of the series)
Summary of the method: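 5-Fluorouridine DNA damage + compound/DMSO, 2,000 cells/well, 16 h, 37 °C/5% CO2. ONE-Glo, 30 min RT, luminescence. Readout = decrease in reporter signal.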
% is scaled to controls: 0 for no effect and ±100 for the full control effect; potency is read from the fitted curve at half-maximal effect.

Row | SMILES | Potency | activity change, negative = inhibition
1 | CN1CCN(c2ccc(NC(=O)COc3ccc(Cl)cc3Cl)cc2)CC1 | inconclusive: 11.6 µM [inhibitor, partial curve] | 
2 | Cc1ccc(NC(=O)N/C=C/c2ccco2)cc1 | inconclusive: 6.51 µM [activator, single point] | 
3 | CCCCNC(=O)CC1S/C(=N/N=C/c2ccc(OC)cc2)NC1=O (configuration not stated) | inconclusive: 18.3 µM [activator, single point] | 
4 | C=CCn1c(C)cc(C(=O)CSc2nnc3c(Cl)cc(Cl)cn23)c1C | inconclusive: 29.1 µM [activator, single point] | 
5 | c1ccc(OCCOc2cccc3cccnc23)cc1 | inconclusive: 16.4 µM [activator, partial curve] | 
6 | O=C(COC(=O)c1n[nH]c2ccccc12)Nc1ccccc1 | inconclusive: 23.1 µM [activator, partial curve] | 
7 | COC(=O)c1c(/N=C/NOCc2ccc(Cl)cc2)sc2c1CCN(c1ncc(C(F)(F)F)cc1Cl)C2 |  | inactive: 1.68%
8 | O=c1[nH]c(CSc2nc3ccccc3[nH]2)nc2c1cnn2-c1ccccc1 | active: 11.6 µM | 
9 | Cn1c(=O)c2c(SCC(=O)NCC3CCCO3)nc(CC(C)(C)C)nc2n(C)c1=O (configuration not stated) |  | inactive: -10%
10 | Cc1cc(C(=O)N/N=C/c2ccc(C)o2)c2ccccc2n1 |  | inactive: -0.0415%
11 | O=C(CCC(=O)c1cccs1)NNC(=O)c1cc(Cl)ccc1Cl | inconclusive: 29.1 µM [activator, single point] | 
12 | COc1ccc(N(CC(=O)NCCc2ccccc2)C(=O)c2csnn2)cc1 | inconclusive: 16.4 µM [activator, single point] | 
13 | FC(F)(F)c1ccc(Cl)c(-n2c(Cc3cccs3)n[nH]c2=S)c1 | inconclusive: 29.1 µM [inhibitor, single point] | 
14 | CN(CC(=O)N1CCN(c2ccccn2)CC1)S(=O)(=O)c1ccc2ccccc2c1 | active: 10.3 µM | 
15 | Cc1ccc(S(=O)(=O)N2CCOCC2)cc1C(=O)N(Cc1nnc(-c2ccccc2Cl)o1)C1CC1 | active: 10.3 µM | 
16 | COc1ccc2[nH]c(=O)c(CN(C(=O)c3cccnc3)c3ccc(C)cc3C)cc2c1 |  | inactive: -7.96%
17 | CCCCC(=O)Nc1nn(CCC)c2nc3ccccc3cc12 | inconclusive: 29.1 µM [inhibitor, single point] | 
18 | O=[N+]([O-])c1cccc(-c2csc(CS(=O)(=O)Cc3ccco3)n2)c1 |  | inactive: -2.88%
19 | Fc1ccc2nc3[nH]c4ccccc4c3nc2c1 | inconclusive: 3.26 µM [activator, partial curve, poor fit] | 
20 | Cc1ccc(SCC(=O)Nc2cccc(-c3nnc(-c4ccco4)o3)c2)cc1 | inconclusive: 23.1 µM [inhibitor, single point] | 
21 | O=C(CCC1N=C2c3ccccc3N=C(SCc3ccc(F)cc3)N2C1=O)NCc1ccco1 (configuration not stated) | inconclusive: 23.1 µM [inhibitor, single point] | 
22 | COc1ccc([N+](=O)[O-])cc1NC(=O)Cc1ccc(Cl)cc1 |  | inactive: -21.2%
23 | COCCNC(=O)c1ccc(CSCc2cccc(Cl)c2)o1 |  | inactive: -0.081%
24 | COc1ccccc1CN1C(=NC(=O)C2CCCCC2)SC2CS(=O)(=O)CC21 (configuration not stated) | inconclusive: 16.4 µM [activator, partial curve, poor fit] | 

Row | SMILES | Potency | activity change, negative = inhibition
25 | C/C(NCc1cccnc1)=C(\C#N)C(=O)NCc1ccccc1 |  | inactive: 2.43%
26 | Cc1ccc(CNc2nnnn2C)cc1 |  | inactive: 11.2%
27 | C/C(=N\NC(=O)c1ccc(Cl)c(Cl)c1)c1ccccn1 | inconclusive: 5.8 µM [activator, full curve, poor fit] | 
28 | Cc1cccc(N2CCN(C(=O)CCCCCn3c(=S)[nH]c4ccc(N5CCOCC5)cc4c3=O)CC2)c1C | active: 16.4 µM | 
29 | O=C(Nc1ccccc1OCc1ccccc1)c1ccccc1Br |  | inactive: 10.8%
30 | CCN(CC)c1ccc(NC(=O)COC(=O)CCC(=O)c2ccc(F)cc2)cc1 | inconclusive: 29.1 µM [activator, single point] | 
31 | CC(C)(C)c1cc(C(=O)NN)n(Cc2ccc(Cl)cc2Cl)n1 | inconclusive: 18.3 µM [inhibitor, single point] | 
32 | CC(CNc1nc2ccc(Cl)cc2n2cnnc12)c1ccccc1 (configuration not stated) | inconclusive: 10.3 µM [inhibitor, partial curve, poor fit] | 
33 | CCC(OC(=O)c1cccs1)C(=O)NCc1ccc(C)cc1 (configuration not stated) |  | inactive: 12.6%
34 | COc1ccc(OCCCn2c(=O)oc3ccccc32)cc1 | inconclusive: 20.6 µM [activator, single point] | 
35 | COc1ccc(NC(=O)CSc2nnc(NC(=O)C3CCC3)s2)cc1 | inconclusive: 29.1 µM [activator, single point] | 
36 | O=C(Nc1ccc2nc3n(c(=O)c2c1)CCCCC3)C(=O)N1CCN(c2ccc(F)cc2)CC1 | inconclusive: 20.6 µM [inhibitor, single point] | 
37 | CN(c1ccccc1)S(=O)(=O)c1cccc(C(=O)NC2CCCC2)c1 | inconclusive: 25.9 µM [inhibitor, single point] | 
38 | COc1ccccc1N(C)S(=O)(=O)c1ccc(C(=O)Nc2cccc(Br)c2)cc1 | active: 18.3 µM | 
39 | COc1ccc(CNC(=O)c2nc(S(=O)(=O)Cc3ccccc3)ncc2Cl)cc1 | inconclusive: 29.1 µM [inhibitor, single point] | 
40 | Cc1ccc2nc3c(cc(C#N)c(=O)n3-c3nccs3)c(=O)n2c1 | inconclusive: 8.2 µM [activator, partial curve, poor fit] | 
41 | COc1ccc(-c2cc3ccc(OCC(N)=O)cc3oc2=O)cc1OC | inconclusive: 14.6 µM [activator, partial curve] | 
42 | CCN(CC)S(=O)(=O)c1ccc2c(c1)c(=O)c(C(=O)NCc1ccc3c(c1)OCO3)cn2C | inconclusive: 29.1 µM [inhibitor, single point] | 
43 | NC(=O)C1=C[C@H](C2CCCCC2)C[C@H](OCc2ccc(CO)cc2)O1 | inconclusive: 9.2 µM [activator, partial curve] | 
44 | CCOC(=O)N1CCN(Cc2nnc(-c3cccc(Br)c3)o2)CC1 | inconclusive: 8.2 µM [inhibitor, partial curve, poor fit] | 
45 | CC(C(=O)Nc1ccc(N2CCOCC2)cc1)N1C(=O)c2ccccc2C1=O (configuration not stated) |  | inactive: 4.88%
46 | COCCNC(=O)C(C)Oc1ccc(Cl)cc1Cl (configuration not stated) | inconclusive: 10.3 µM [activator, partial curve, poor fit] | 
47 | Cc1ccc(C(C)C)c(OCC(O)CN(C)Cc2ccccc2)c1 (configuration not stated) |  | inactive: -22.1%
48 | O=C(NCC1CCCO1)c1cccc(Oc2ccccc2)c1 (configuration not stated) | inconclusive: 18.3 µM [activator, single point] | 

Looked up by structure from the entries so far (3):
Row | SMILES | Potency | activity change, negative = inhibition
31 | CC(C)(C)c1cc(C(=O)NN)n(Cc2ccc(Cl)cc2Cl)n1 | inconclusive: 18.3 µM [inhibitor, single point] | 
25 | C/C(NCc1cccnc1)=C(\C#N)C(=O)NCc1ccccc1 |  | inactive: 2.43%
40 | Cc1ccc2nc3c(cc(C#N)c(=O)n3-c3nccs3)c(=O)n2c1 | inconclusive: 8.2 µM [activator, partial curve, poor fit] | 

Going on with the list:

Row | SMILES | Potency | activity change, negative = inhibition
49 | Cc1ccc(-n2c3c(cc(C(=O)NCc4ccco4)c2=O)C(=O)CCC3)cc1 | inconclusive: 32.6 µM [inhibitor, partial curve, poor fit] | 
50 | CCOC(=O)c1oc2c(c1C)C(=O)CCC2 | inconclusive: 23.1 µM [activator, single point] | 
51 | COC(=O)C1CSC(C(=O)OC)N1C(=O)CN1CCN(c2ccccc2)CC1 (configuration not stated) |  | inactive: 5.01%
52 | CCCCN(CC)CCNC(=O)c1ccc2c(Cl)c3c(nc2c1)CCC3 |  | inactive: 24.6%
53 | COc1cccc(CN2CCNC(=O)C2CC(=O)NC2CCOCC2)c1OC (configuration not stated) |  | inactive: 9.47%
54 | Cc1c(-n2c(SCC(=O)O)nnc2-c2ccccc2Br)c(=O)n(-c2ccccc2)n1C |  | inactive: 14.6%
55 | Cc1cc(C)n2nc(C(=O)Nc3ccc4c(c3)OCO4)nc2n1 | inconclusive: 20.6 µM [activator, partial curve] | 
56 | Cc1cc(C)cc(C(=O)OCC(=O)N2CCCCCC2)c1 | inconclusive: 14.6 µM [activator, single point] | 
57 | O=C(Nc1cccc(S(=O)(=O)NCc2ccco2)c1)c1cc(-c2ccccc2)nc2ccccc12 | active: 20.6 µM | 
58 | CCCc1cc(=O)[nH]c(SCc2nc3ccc([N+](=O)[O-])cc3[nH]2)n1 | inconclusive: 25.9 µM [inhibitor, partial curve] | 
59 | Cc1ccc(NC(=O)COC(=O)Cc2ccc(Br)cc2)cc1S(=O)(=O)N1CCOCC1 |  | inactive: 9.52%
60 | CCCc1cc(=O)oc2c(C)c(OCC(=O)N3C[C@H]4C[C@@H](C3)c3cccc(=O)n3C4)ccc12 | inconclusive: 1.16 µM [inhibitor, single point] | 
61 | O=C(Nc1ccc(F)cc1F)c1cccc(C(=O)Nc2ccc(F)cc2F)n1 | active: 16.4 µM | 
62 | Cc1ccsc1C(=O)NCCC(c1ccccc1)c1ccccc1 |  | inactive: -4.84%
63 | O=C(Nc1cccc(C(=O)O)c1)/C(=C\c1ccc2c(c1)OCO2)NC(=O)c1ccccc1Cl |  | inactive: 1.56%
64 | c1ccc(-n2ncc3c(N4CCN(CCOc5cccc6ccccc56)CC4)ncnc32)cc1 |  | inactive: -4.44%
65 | Cc1ccc(NC(=O)C(C)OC(=O)/C=C/c2ccccc2)cc1S(=O)(=O)N1CCOCC1 (configuration not stated) |  | inactive: 19.3%
66 | Cc1ccn2c(Nc3ccc4c(c3)OCO4)c(-c3ccccn3)nc2c1 | inconclusive: 16.4 µM [activator, single point] | 
67 | O=C(CSc1nnc([C@@H]2CCCN2)o1)c1ccc(Cl)cc1 | inconclusive: 18.4 µM [activator, single point] | 
68 | COc1ccc(N2CCN(CC(=O)Nc3ccccc3SC)CC2)cc1 | inconclusive: 16.4 µM [inhibitor, single point] | 
69 | Cc1cccc(C(=O)NNC(=O)c2ccco2)c1 | inconclusive: 16.4 µM [activator, partial curve] | 
70 | COc1ccc2[nH]c(-c3ccc(C)cc3)cc(=O)c2c1 | inconclusive: 1.84 µM [activator, partial curve] | 
71 | COc1cccc(C2C(C#N)=C(C)NC3=C2C(=O)CC(C)(C)C3)c1 (configuration not stated) |  | inactive: -3.7%
72 | CCn1c2ccccc2c2cc(NC(=O)COc3ccc(OC)cc3)ccc21 |  | inactive: -2.42%
